Results taken from patent US12590100B2, “Tetrahydro-spiroindoline-pyrrolopyrrole-triones inhibitors of the NRF2-β-TrCP interaction for use in the treatment of fatty liver disease” (Universidad Autonoma De Madrid, priority 2021, dated 2026).
At least one structure is not confirmed: it was looked up by name or label, or the drawing left a doubt.

Tested on: β-TrCP-NRF2 interaction
Experiment: NRF2 levels after LY294002 (PI3K inhibition, GSK-3β activation) in Keap1−/− MEFs
Type: cell-based, mouse
Conditions: LY294002 20 μM

O=c1cc(N2CCOCC2)oc2c(-c3ccccc3)cccc12 [LY294002]
pSer473-AKT and pS9-GSK3 levels: caused a reduction of pSer473-AKT (by inactivating it) and pS9-GSK3 (by activating it)
NRF2 levels with LY294002 alone (mainly after 120 and 240 min): caused a drop in NRF2 levels
